Experimental data taken from patent US20220259283A1 (AARHUS UNIVERSITET, published 2022).
Results are given in words; binding and its absence hold for the method and conditions named. For part of these data: In cells and extracts the contact can be indirect. Some binding calls cover weakened binding; strength is not graded here.

By UniProt entry, the sequences of proteins in these tests, tags left out. Where a name states a change or a piece, a line headed by the entry shows the natural chain unless it says otherwise. Chains listed by the source or under a name are the forms on record and can include a tag or linker.
hPGRN-6his (human progranulin with a C-terminal 6his-tag) (P28799, form named): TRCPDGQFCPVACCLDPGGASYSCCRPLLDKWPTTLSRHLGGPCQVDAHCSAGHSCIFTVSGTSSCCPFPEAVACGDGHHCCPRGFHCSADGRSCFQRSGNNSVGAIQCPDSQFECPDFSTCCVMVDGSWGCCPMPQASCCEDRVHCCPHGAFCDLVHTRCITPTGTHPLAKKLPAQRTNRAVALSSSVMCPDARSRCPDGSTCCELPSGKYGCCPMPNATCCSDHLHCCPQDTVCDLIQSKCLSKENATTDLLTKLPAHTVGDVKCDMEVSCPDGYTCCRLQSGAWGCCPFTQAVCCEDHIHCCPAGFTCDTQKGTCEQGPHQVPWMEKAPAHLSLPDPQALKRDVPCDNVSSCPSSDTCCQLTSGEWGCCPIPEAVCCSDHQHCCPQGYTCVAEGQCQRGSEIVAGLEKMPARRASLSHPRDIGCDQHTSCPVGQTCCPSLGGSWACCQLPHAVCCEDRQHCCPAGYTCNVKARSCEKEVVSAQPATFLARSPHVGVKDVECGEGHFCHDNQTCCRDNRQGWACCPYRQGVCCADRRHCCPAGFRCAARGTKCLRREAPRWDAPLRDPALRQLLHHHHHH
UniProt Q96PQ0: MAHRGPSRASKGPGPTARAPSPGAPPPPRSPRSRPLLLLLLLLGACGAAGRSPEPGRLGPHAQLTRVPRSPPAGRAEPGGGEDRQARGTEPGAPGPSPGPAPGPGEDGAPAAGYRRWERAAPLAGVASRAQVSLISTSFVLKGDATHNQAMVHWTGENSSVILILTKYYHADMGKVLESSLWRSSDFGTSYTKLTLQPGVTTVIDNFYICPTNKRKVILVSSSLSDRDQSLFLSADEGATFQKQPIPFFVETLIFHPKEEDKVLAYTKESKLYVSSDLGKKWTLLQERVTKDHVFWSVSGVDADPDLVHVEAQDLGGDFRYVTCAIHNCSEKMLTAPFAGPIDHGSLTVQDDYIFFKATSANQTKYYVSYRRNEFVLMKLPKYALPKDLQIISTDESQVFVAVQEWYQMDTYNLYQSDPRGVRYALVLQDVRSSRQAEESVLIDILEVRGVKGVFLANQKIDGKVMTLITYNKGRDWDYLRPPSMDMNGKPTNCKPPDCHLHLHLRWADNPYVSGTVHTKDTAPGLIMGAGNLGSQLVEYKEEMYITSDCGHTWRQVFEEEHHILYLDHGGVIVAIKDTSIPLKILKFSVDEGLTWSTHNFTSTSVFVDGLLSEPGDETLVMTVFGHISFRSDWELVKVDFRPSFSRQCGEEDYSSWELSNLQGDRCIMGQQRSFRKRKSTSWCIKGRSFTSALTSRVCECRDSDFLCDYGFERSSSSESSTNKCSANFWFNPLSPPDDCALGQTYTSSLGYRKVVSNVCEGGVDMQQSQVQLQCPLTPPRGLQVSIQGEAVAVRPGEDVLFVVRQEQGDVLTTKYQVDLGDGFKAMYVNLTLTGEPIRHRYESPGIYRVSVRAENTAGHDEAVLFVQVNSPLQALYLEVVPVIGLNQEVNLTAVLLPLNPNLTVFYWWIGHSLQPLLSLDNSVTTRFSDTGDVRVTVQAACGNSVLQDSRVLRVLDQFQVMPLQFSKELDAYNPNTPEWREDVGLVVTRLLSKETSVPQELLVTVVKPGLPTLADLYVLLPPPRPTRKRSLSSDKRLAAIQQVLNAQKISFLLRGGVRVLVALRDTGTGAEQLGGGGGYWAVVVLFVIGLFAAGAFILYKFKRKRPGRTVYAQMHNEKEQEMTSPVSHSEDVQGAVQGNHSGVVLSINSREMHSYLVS

Experiments:
[1] = target: T1, hamster progranulin (expressed by the CHO-K1 cells) (hamster) (UniProt G3HLK3); experiment: co-purification, MALDI MS/MS
T1 sequence: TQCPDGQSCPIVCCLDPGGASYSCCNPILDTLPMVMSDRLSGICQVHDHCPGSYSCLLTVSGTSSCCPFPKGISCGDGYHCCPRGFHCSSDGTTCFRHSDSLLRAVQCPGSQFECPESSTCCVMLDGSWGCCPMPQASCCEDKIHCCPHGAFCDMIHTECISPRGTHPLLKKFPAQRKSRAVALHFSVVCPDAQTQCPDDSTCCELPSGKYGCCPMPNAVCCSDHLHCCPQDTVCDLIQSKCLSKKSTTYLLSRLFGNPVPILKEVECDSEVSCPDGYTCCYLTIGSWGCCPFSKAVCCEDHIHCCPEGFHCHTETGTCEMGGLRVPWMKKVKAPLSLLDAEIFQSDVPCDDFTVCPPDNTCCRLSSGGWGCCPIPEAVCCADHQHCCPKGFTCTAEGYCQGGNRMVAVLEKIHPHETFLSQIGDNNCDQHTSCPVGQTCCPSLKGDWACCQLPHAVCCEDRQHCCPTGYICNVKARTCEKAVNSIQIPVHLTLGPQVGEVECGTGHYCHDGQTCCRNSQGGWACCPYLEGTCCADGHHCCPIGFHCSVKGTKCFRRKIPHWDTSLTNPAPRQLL

[2] = target: T1, hamster progranulin (expressed by the CHO-K1 cells) (hamster); experiment: co-purification on Talon beads from CHO-K1 medium, SDS-PAGE band identified by MALDI MS/MS
[3] = target: hPGRN-6his (human progranulin with a C-terminal 6his-tag) (human) (UniProt P28799); experiment: SPR and MST

Measured: binding

hSorCS2-6his (extracellular domain of human SorCS2 with a C-terminal 6His-tag) (from UniProt Q96PQ0 51-1076) (receptor)
binds: [1] | [2] | [3]
